Measured values published in article PMC10165355.
Results are given in words; binding and its absence hold for the method and conditions named. In cells and extracts the contact can be indirect. Some binding calls cover weakened binding; strength is not graded here. For some assays here: Where a sequence is shown, tags or fusion partners need not be part of it.

What was measured:
[1] = biological target: T1, Flag-DCLK1 (doublecortin-like kinase 1) (UniProt O15075); assay: co-IP; 293T cells transfected with Flag-DCLK1; Flag-DCLK1 immunoprecipitated by anti-Flag antibody (4°C overnight, Protein A+G agarose), blot for IKKβ; IgG control
T1 sequence: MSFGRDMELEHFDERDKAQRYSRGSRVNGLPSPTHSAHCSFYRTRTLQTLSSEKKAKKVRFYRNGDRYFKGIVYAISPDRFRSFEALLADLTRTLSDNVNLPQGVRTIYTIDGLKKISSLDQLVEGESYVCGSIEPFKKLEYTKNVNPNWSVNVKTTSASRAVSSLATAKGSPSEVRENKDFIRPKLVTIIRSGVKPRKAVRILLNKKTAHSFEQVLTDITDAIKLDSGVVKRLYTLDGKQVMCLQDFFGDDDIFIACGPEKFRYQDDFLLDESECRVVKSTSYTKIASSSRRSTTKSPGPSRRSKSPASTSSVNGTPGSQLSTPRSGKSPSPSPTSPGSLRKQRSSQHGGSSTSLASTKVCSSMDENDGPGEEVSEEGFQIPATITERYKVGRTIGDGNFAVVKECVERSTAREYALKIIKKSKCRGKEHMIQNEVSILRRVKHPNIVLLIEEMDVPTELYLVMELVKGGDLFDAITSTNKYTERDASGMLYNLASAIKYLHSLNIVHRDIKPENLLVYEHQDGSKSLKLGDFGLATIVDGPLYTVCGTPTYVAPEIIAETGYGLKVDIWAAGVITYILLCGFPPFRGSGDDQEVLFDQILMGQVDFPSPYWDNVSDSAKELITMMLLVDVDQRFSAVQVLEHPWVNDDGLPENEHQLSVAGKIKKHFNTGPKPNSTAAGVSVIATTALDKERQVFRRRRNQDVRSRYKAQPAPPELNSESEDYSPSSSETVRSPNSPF

[2] = biological target: T2, DCLK1 (endogenous in mouse primary peritoneal macrophages) (mouse (endogenous in MPMs)) (UniProt Q9JLM8); assay: co-IP; endogenous proteins in MPMs challenged with oxLDL (50 μg/ml) for 1 h; DCLK1 immunoprecipitated by anti-DCLK1 antibody (4°C overnight, Protein A+G agarose), blot for IKKβ
T2 sequence: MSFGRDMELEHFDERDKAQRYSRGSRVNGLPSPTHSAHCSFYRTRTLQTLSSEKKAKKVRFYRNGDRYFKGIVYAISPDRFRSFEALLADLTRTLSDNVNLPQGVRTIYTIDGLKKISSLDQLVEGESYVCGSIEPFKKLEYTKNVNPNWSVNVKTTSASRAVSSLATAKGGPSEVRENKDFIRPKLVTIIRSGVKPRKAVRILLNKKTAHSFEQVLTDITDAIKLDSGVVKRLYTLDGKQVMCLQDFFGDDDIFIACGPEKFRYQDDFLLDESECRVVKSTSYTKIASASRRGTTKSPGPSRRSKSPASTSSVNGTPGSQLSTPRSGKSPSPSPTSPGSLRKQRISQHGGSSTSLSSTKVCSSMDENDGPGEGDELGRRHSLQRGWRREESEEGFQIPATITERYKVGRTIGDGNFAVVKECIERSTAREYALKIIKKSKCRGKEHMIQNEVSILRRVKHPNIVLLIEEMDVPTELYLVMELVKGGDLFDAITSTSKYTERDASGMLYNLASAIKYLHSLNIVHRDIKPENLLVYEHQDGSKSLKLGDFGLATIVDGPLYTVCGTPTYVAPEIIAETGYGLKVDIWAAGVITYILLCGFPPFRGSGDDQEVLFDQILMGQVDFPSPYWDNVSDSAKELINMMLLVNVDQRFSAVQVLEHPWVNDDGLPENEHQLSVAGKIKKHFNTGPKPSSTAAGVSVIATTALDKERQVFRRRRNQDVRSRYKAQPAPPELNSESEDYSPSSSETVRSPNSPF

B1: IKKβ (endogenous in 293T cells) (protein, UniProt O14920 1-756)
chain: MSWSPSLTTQTCGAWEMKERLGTGGFGNVIRWHNQETGEQIAIKQCRQELSPRNRERWCLEIQIMRRLTHPNVVAARDVPEGMQNLAPNDLPLLAMEYCQGGDLRKYLNQFENCCGLREGAILTLLSDIASALRYLHENRIIHRDLKPENIVLQQGEQRLIHKIIDLGYAKELDQGSLCTSFVGTLQYLAPELLEQQKYTVTVDYWSFGTLAFECITGFRPFLPNWQPVQWHSKVRQKSEVDIVVSEDLNGTVKFSSSLPYPNNLNSVLAERLEKWLQLMLMWHPRQRGTDPTYGPNGCFKALDDILNLKLVHILNMVTGTIHTYPVTEDESLQSLKARIQQDTGIPEEDQELLQEAGLALIPDKPATQCISDGKLNEGHTLDMDLVFLFDNSKITYETQISPRPQPESVSCILQEPKRNLAFFQLRKVWGQVWHSIQTLKEDCNRLQQGQRAAMMNLLRNNSCLSKMKNSMASMSQQLKAKLDFFKTSIQIDLEKYSEQTEFGITSDKLLLAWREMEQAVELCGRENEVKLLVERMMALQTDIVDLQRSPMGRKQGGTLDDLEEQARELYRRLREKPRDQRTEGDSQEMVRLLLQAIQSFEKKVRVIYTQLSKTVVCKQKALELLPKVEEVVSLMNEDEKTVVRLQEKRQKELWNLLKIACSKVRGPVSGSPDSMNASRLSQPGQLMSQPSTASNSLPEPAKKSEELVAEAHNLCTLLENAIQDTVREQDQSFTALDWSWLQTEEEEHSCLEQAS
With B1 the binding [1] was “binds”.

B2: IKKβ (endogenous in mouse primary peritoneal macrophages) (protein, UniProt O88351 1-757)
chain: MSWSPSLPTQTCGAWEMKERLGTGGFGNVIRWHNQATGEQIAIKQCRQELSPKNRNRWCLEIQIMRRLNHPNVVAARDVPEGMQNLAPNDLPLLAMEYCQGGDLRRYLNQFENCCGLREGAVLTLLSDIASALRYLHENRIIHRDLKPENIVLQQGEKRLIHKIIDLGYAKELDQGSLCTSFVGTLQYLAPELLEQQKYTVTVDYWSFGTLAFECITGFRPFLPNWQPVQWHSKVRQKSEVDIVVSEDLNGAVKFSSSLPFPNNLNSVLAERLEKWLQLMLMWHPRQRGTDPQYGPNGCFRALDDILNLKLVHVLNMVTGTVHTYPVTEDESLQSLKTRIQENTGILETDQELLQKAGLVLLPDKPATQCISDSKTNEGLTLDMDLVFLLDNSKINYETQITPRPPPESVSCILQEPKRNLSFFQLRKVWGQVWHSIQTLKEDCNRLQQGQRAAMMSLLRNNSCLSKMKNAMASTAQQLKAKLDFFKTSIQIDLEKYKEQTEFGITSDKLLLAWREMEQAVEQCGRENDVKHLVERMMALQTDIVDLQRSPMGRKQGGTLDDLEEQARELYRKLREKPRDQRTEGDSQEMVRLLLQAIQSFEKKVRVIYTQLSKTVVCKQKALELLPKVEEVVSLMNEDERTVVRLQEKRQKELWNLLKIACSKVRGPVSGSPDSMNVSRLSHPGQLMSQPSSACDSLPESDKKSEELVAEAHALCSRLESALQDTVKEQDRSFTTLDWSWLQMEDEERCSLEQACD
In the case of B2, the binding [2] is reported as “binds”.
